In experiment [1] the target is ribosomal protein S5b (D. melanogaster) (UniProt Q9VFE4). The experiment in a line: co-sedimentation.
Experiment [2] has the same target. Nature of the experiment: co-IP.

By UniProt entry, the sequences of proteins in these tests, tags left out.
UniProt P29327: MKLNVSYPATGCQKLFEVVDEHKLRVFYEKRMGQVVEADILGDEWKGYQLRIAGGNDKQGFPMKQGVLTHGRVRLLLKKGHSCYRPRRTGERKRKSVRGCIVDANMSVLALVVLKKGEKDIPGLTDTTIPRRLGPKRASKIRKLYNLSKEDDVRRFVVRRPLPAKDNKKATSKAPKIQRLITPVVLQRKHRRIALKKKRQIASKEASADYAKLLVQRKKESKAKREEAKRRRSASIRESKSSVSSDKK

These are yes or no findings as the source states them, for the method shown. In cells and extracts the contact can be indirect. Some binding calls cover weakened binding; strength is not graded here.

For the substance “ribosomal protein S6 (from UniProt P29327 1-248)”, the binding entry in experiment [1] and in experiment [2] was “binds” each time.

Values taken from paper doi:10.1101/600502.
